Data source: PubChem BioAssay AID1259254 (NCATS, 2017)

Purpose: 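Genome-wide screen for genes that prevent DNA re-replication in cancer cells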 (primary screen)
Cells: human HCT116 colorectal cancer cells
Knock-down reagent: single siRNA against human genes
Time to read-out: 3 days
Detection: 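Nuclei stained with Hoechst and imaged; cell-cycle phase assigned by DNA content; G2 share scaled per plate, non-targeting siRNA 0%, GMNN siRNA 100%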
Direction: G2 robust z-score: higher = more G2 cells, more excess DNA replication
Call rule: 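Active siRNAs have a G2 robust z of 5 or more median absolute deviations over the median, which in these data means about 38% or higher of GMNN control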
In all, the deposit lists about 59,000 reagents; below is an unselected part. About 1,550 of all reagents (2.6%) count as active. 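G2 share is only a proxy for re-replication; each gene was hit by three separate siRNAs, and active genes were retested.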 Unmarked entries are inactive. Reagents against one gene are numbered here. Further read-outs or replicates are left out here. No sequences are given here. Not given: the amount of reagent.

APOA5 #1 — G2 robust z-score = -0.0798
APOA5 #2 — G2 robust z-score = 2.84
APOA5 #3 — G2 robust z-score = -0.631
CHODL #1 — G2 robust z-score = 1.94
CHODL #2 — G2 robust z-score = 0.693
CHODL #3 — G2 robust z-score = -0.351
CPLX4 #1 — G2 robust z-score = -0.626
CPLX4 #2 — G2 robust z-score = -0.481
CPLX4 #3 — G2 robust z-score = 0.07
ABCA15P #1 — G2 robust z-score = 3.92
ABCA15P #2 — G2 robust z-score = 1.93
ABCA15P #3 — G2 robust z-score = -0.566
TMEM47 #1 — G2 robust z-score = 0.406
TMEM47 #2 — G2 robust z-score = 0.411
TMEM47 #3 — G2 robust z-score = -0.159
CCNB1IP1 #1 — G2 robust z-score = 4.29
CCNB1IP1 #2 — G2 robust z-score = 1.01
CCNB1IP1 #3 — G2 robust z-score = 0.898
BRD9 #1 — G2 robust z-score = -1.1
BRD9 #2 — G2 robust z-score = -0.359
BRD9 #3 — G2 robust z-score = -0.71
CD72 #1 — G2 robust z-score = 1.55
CD72 #2 — G2 robust z-score = -0.277
CD72 #3 — G2 robust z-score = -0.0582
CCDC110 #1 — G2 robust z-score = -0.0676
CCDC110 #2 — G2 robust z-score = -0.356
CCDC110 #3 — G2 robust z-score = 0.47
TRIM61 #1 — G2 robust z-score = -0.907
TRIM61 #2 — G2 robust z-score = 2.47
TRIM61 #3 — G2 robust z-score = -0.0413
